No constants are given. Whether binding was seen depends on the method and setting. Binding seen in cells or lysates may run through a third protein. Some binding calls cover weakened binding; strength is not graded here.
What was measured:
[1] = molecular target: GFP-GABARAP (UniProt O95166); assay: co-IP
[2] = molecular target: GFP-LC3C (UniProt Q9BXW4); assay: co-IP

Chains of the proteins cited; added tags and fusions are not shown. Residues count along the entry.
UniProt O95166: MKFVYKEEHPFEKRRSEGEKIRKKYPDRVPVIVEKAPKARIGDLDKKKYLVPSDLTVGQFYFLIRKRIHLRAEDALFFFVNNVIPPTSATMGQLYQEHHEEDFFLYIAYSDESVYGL
UniProt Q9BXW4, residues 1-126: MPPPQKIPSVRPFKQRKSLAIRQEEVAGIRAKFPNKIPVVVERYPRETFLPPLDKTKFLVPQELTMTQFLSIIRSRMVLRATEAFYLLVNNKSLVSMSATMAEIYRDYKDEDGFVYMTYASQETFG
UniProt P0DTC3: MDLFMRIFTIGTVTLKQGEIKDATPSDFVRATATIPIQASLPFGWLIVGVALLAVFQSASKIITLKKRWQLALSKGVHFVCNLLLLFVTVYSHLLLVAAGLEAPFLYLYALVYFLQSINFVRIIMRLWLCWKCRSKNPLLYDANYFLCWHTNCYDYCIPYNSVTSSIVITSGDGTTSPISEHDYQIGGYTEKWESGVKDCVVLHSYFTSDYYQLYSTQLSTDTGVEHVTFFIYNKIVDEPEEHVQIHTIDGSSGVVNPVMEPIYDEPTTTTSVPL

How did the binding [1] turn out when “SARS-CoV-2 ORF3a-HA (from UniProt P0DTC3 1-275)” was run?
Its binding is “binds”.

And the binding [2]?
The binding was “binds”.

From doi:10.1101/2024.09.12.612614
